The comparison behind a weaker result is the experiment's own reference, which may not be listed here.
Target: HNF-1A DD-DBD (HNF-1A 1-279) (UniProt P20823)
Assay: BLI
Conditions: Kd increase between 5 and 10 fold vs P2 WT; BLI: streptavidin sensor with BiotinTEG dsDNA; recombinant protein; residues 1-279; protein details: His6 removed by TEV; label: 5' BiotinTEG on forward strand (BLI only)

The chains behind the UniProt entries cited, without tags or fusion partners. Residues count along the entry.
UniProt P20823, 1-279: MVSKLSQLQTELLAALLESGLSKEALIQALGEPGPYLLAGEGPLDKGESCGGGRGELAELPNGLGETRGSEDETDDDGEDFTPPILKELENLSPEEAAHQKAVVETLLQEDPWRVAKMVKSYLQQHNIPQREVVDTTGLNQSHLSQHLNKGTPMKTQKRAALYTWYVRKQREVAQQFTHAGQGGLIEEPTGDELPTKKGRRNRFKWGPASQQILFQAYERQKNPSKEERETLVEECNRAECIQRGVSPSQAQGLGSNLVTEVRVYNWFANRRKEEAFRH

“ACTGATTACTCTTTAACGTAT (double strand) [P2 -181G>A]”: binds more weakly.

From article PMC11382887, “Molecular mechanism of HNF-1A–mediated HNF4A gene regulation and promoter-driven HNF4A-MODY diabetes”
